Data reported in patent US10227351B2, “Salt and polymorphic forms of (3R,4S)-L-((4-amino-5H-pyrrolo[3,2,-D]pyrimidin-7-yl)methyl)-4(methylthiomethyl)pyrodin-3-ol(MTDIA)” (VICTORIA LINK LIMITED, priority 2012, dated 2019).
“Also recorded” adds a separate entry of the source. At least one compound was matched to its structure with a doubt left.

Test system: MDA-MB-468 tumours
Assay: MDA-MB-468 orthotopic mouse xenograft, tumour volume
Assay type: in vivo

SMILES: CSC[C@H]1CN(Cc2c[nH]c3c(N)ncnc23)C[C@@H]1O [(3R,4S)-1-((4-amino-5H-pyrrolo[3,2-d]pyrimidin-7-yl)methyl)-4-(methylthiomethyl)pyrrolidin-3-ol phosphate]
- tumour size of established tumours on treatment (150 mm^3 MDA-MB-468 tumours grown orthotopically 35 days, 30.5 mg/kg in drinking water or 24 mg/kg daily i.p., controls grow from 150 to 400 mm^3 over 35 days): shrink by half within days
- tumour growth during treatment (150 mm^3 MDA-MB-468 tumours, treatment from day 36 to day 71, 30.5 mg/kg in drinking water or 24 mg/kg daily i.p.): completely suppresses tumour growth; also recorded: suppresses growth for the subsequent 30 days
- comparison of doses at stopping cancer growth (doses from 24 to 30.5 mg/kg (i.p. or drinking water)): equally effective at stopping cancer growth
- size of large control tumours on treatment (large control tumours (grown to 400 mm^3) treated from day 71 with 30 mg/kg i.p.): rapid decrease in size as a consequence of tumour lysis
- resolution of large tumours (large control tumours treated from day 71 with 30 mg/kg i.p., two-week treatment period, 30 mg/kg): bulk of the tumours resolve over a two-week treatment period; also recorded: most of the tumours resolved over a two-week period
- tumour regrowth upon drug release (treated animals released from therapy at day 71, relative to untreated tumours): tumour size increases slowly relative to untreated tumour growth; also recorded: tumour size increases slowly relative to untreated tumours
